{"source": "PubChem BioAssay AID743121 (NCATS, 2013)", "assay": "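Genes whose silencing strengthens cell killing by camptothecin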 (primary screen)", "system": "MDA-MB-231 cells, a human breast cancer line", "knock-down reagent": "single siRNA against human genes, 20 nM siRNA (0.8 pmol per well)", "timing": "120 h (drug added 48 h after transfection, read 72 h later)", "challenge": "camptothecin 20 nM (about EC30) for 72 h; vehicle 0.1% DMSO in parallel plates", "measured": "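Cell viability by ATP luminescence (CellTiter-Glo) as % of non-targeting siRNA wells, and the log2 ratio of viability without drug over viability with camptothecin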", "direction": "log2 vehicle/camptothecin viability: higher = stronger sensitisation to camptothecin; viability with camptothecin: higher = more viable cells", "units": "viability with camptothecin in % of control", "rule for the call": "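Each gene scored by redundant siRNA activity (RSA) over its individual siRNA ratios; a gene is called active at p < 0.001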", "note": "In all, the deposit lists about 26,000 reagents; this is a random part of them. In the full data, 167 (0.63%) were called active. 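Calls are per gene from RSA p-values that are not deposited; an individual active-marked siRNA can sensitise only weakly.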 Entries without a mark were called inactive. Reagents against one gene are numbered here. Further read-outs or replicates are left out here."}
{"target":"HDAC3 (GeneID 8841)","reagent no.":1,"log2 vehicle/camptothecin viability":-0.206,"viability with camptothecin":29.6}
{"target":"HDAC3 (GeneID 8841)","reagent no.":2,"log2 vehicle/camptothecin viability":-0.0507,"viability with camptothecin":66.6}
{"target":"HDAC3 (GeneID 8841)","reagent no.":3,"log2 vehicle/camptothecin viability":0.381,"viability with camptothecin":63.1}
{"target":"HDAC3 (GeneID 8841)","reagent no.":4,"log2 vehicle/camptothecin viability":-0.186,"viability with camptothecin":99.4}
{"target":"IL11 (GeneID 3589)","reagent no.":1,"log2 vehicle/camptothecin viability":-0.235,"viability with camptothecin":61.1}
{"target":"IL11 (GeneID 3589)","reagent no.":2,"log2 vehicle/camptothecin viability":-0.302,"viability with camptothecin":76.4}
{"target":"IL11 (GeneID 3589)","reagent no.":3,"log2 vehicle/camptothecin viability":-0.194,"viability with camptothecin":66}
{"target":"IL11 (GeneID 3589)","reagent no.":4,"log2 vehicle/camptothecin viability":-0.41,"viability with camptothecin":44.5}
{"target":"CCN5 (GeneID 8839)","reagent no.":1,"log2 vehicle/camptothecin viability":-0.275,"viability with camptothecin":75.1}
{"target":"CCN5 (GeneID 8839)","reagent no.":2,"log2 vehicle/camptothecin viability":1.13,"viability with camptothecin":7.29}
{"target":"CCN5 (GeneID 8839)","reagent no.":3,"log2 vehicle/camptothecin viability":-0.255,"viability with camptothecin":68}
{"target":"CCN5 (GeneID 8839)","reagent no.":4,"log2 vehicle/camptothecin viability":-0.127,"viability with camptothecin":99.7}
{"target":"HSPE1 (GeneID 3336)","reagent no.":1,"log2 vehicle/camptothecin viability":0.098,"viability with camptothecin":45.7}
{"target":"HSPE1 (GeneID 3336)","reagent no.":2,"log2 vehicle/camptothecin viability":-0.667,"viability with camptothecin":64.1}
{"target":"HSPE1 (GeneID 3336)","reagent no.":3,"log2 vehicle/camptothecin viability":-0.156,"viability with camptothecin":66.3}
{"target":"HSPE1 (GeneID 3336)","reagent no.":4,"log2 vehicle/camptothecin viability":-0.665,"viability with camptothecin":85.7}
{"target":"SALL2 (GeneID 6297)","reagent no.":1,"log2 vehicle/camptothecin viability":-0.00322,"viability with camptothecin":45.4}
{"target":"SALL2 (GeneID 6297)","reagent no.":2,"log2 vehicle/camptothecin viability":0.0822,"viability with camptothecin":65}
{"target":"SALL2 (GeneID 6297)","reagent no.":3,"log2 vehicle/camptothecin viability":-0.188,"viability with camptothecin":91.4}
{"target":"SALL2 (GeneID 6297)","reagent no.":4,"log2 vehicle/camptothecin viability":-0.318,"viability with camptothecin":91}
{"target":"CLCA1 (GeneID 1179)","reagent no.":1,"log2 vehicle/camptothecin viability":-0.192,"viability with camptothecin":43.7}
{"target":"CLCA1 (GeneID 1179)","reagent no.":2,"log2 vehicle/camptothecin viability":-0.311,"viability with camptothecin":97.1}
{"target":"CLCA1 (GeneID 1179)","reagent no.":3,"log2 vehicle/camptothecin viability":-0.37,"viability with camptothecin":96.1}
{"target":"CLCA1 (GeneID 1179)","reagent no.":4,"log2 vehicle/camptothecin viability":0.00968,"viability with camptothecin":91.8}
{"target":"KCNAB1 (GeneID 7881)","reagent no.":1,"log2 vehicle/camptothecin viability":-0.147,"viability with camptothecin":73.9}
{"target":"KCNAB1 (GeneID 7881)","reagent no.":2,"log2 vehicle/camptothecin viability":-0.156,"viability with camptothecin":91}
{"target":"KCNAB1 (GeneID 7881)","reagent no.":3,"log2 vehicle/camptothecin viability":-0.461,"viability with camptothecin":118}
{"target":"KCNAB1 (GeneID 7881)","reagent no.":4,"log2 vehicle/camptothecin viability":-0.0714,"viability with camptothecin":97.9}
{"target":"KLF6 (GeneID 1316)","reagent no.":1,"log2 vehicle/camptothecin viability":0.128,"viability with camptothecin":8.79}
{"target":"KLF6 (GeneID 1316)","reagent no.":2,"log2 vehicle/camptothecin viability":0.753,"viability with camptothecin":46.4}
{"target":"KLF6 (GeneID 1316)","reagent no.":3,"log2 vehicle/camptothecin viability":-0.073,"viability with camptothecin":86.3}
{"target":"KLF6 (GeneID 1316)","reagent no.":4,"log2 vehicle/camptothecin viability":-0.107,"viability with camptothecin":64.9}
{"target":"KIFC3 (GeneID 3801)","reagent no.":1,"log2 vehicle/camptothecin viability":-0.426,"viability with camptothecin":104}
{"target":"KIFC3 (GeneID 3801)","reagent no.":2,"log2 vehicle/camptothecin viability":1.41,"viability with camptothecin":12.6}
{"target":"KIFC3 (GeneID 3801)","reagent no.":3,"log2 vehicle/camptothecin viability":-0.466,"viability with camptothecin":82.3}
{"target":"KIFC3 (GeneID 3801)","reagent no.":4,"log2 vehicle/camptothecin viability":0.176,"viability with camptothecin":46.3}
{"target":"CACNA2D4 (GeneID 93589)","reagent no.":1,"log2 vehicle/camptothecin viability":-0.253,"viability with camptothecin":100}
{"target":"CACNA2D4 (GeneID 93589)","reagent no.":2,"log2 vehicle/camptothecin viability":-0.126,"viability with camptothecin":67.1}
{"target":"CACNA2D4 (GeneID 93589)","reagent no.":3,"log2 vehicle/camptothecin viability":0.226,"viability with camptothecin":26.7}
{"target":"CACNA2D4 (GeneID 93589)","reagent no.":4,"log2 vehicle/camptothecin viability":0.0896,"viability with camptothecin":97.8}
{"target":"TRIM24 (GeneID 8805)","reagent no.":1,"log2 vehicle/camptothecin viability":-0.0445,"viability with camptothecin":95}
{"target":"TRIM24 (GeneID 8805)","reagent no.":2,"log2 vehicle/camptothecin viability":0.194,"viability with camptothecin":92.9}
{"target":"TRIM24 (GeneID 8805)","reagent no.":3,"log2 vehicle/camptothecin viability":-0.148,"viability with camptothecin":78.2}
{"target":"TRIM24 (GeneID 8805)","reagent no.":4,"log2 vehicle/camptothecin viability":-0.27,"viability with camptothecin":115}
{"target":"TRIM24 (GeneID 8805)","reagent no.":5,"log2 vehicle/camptothecin viability":-0.0274,"viability with camptothecin":91.2}
{"target":"TRIM24 (GeneID 8805)","reagent no.":6,"log2 vehicle/camptothecin viability":-0.818,"viability with camptothecin":28.9}

Copied from the listing for reference:
{"target":"KLF6 (GeneID 1316)","reagent no.":1,"log2 vehicle/camptothecin viability":0.128,"viability with camptothecin":8.79}
{"target":"KLF6 (GeneID 1316)","reagent no.":2,"log2 vehicle/camptothecin viability":0.753,"viability with camptothecin":46.4}
{"target":"KLF6 (GeneID 1316)","reagent no.":3,"log2 vehicle/camptothecin viability":-0.073,"viability with camptothecin":86.3}
{"target":"KLF6 (GeneID 1316)","reagent no.":4,"log2 vehicle/camptothecin viability":-0.107,"viability with camptothecin":64.9}
{"target":"KIFC3 (GeneID 3801)","reagent no.":1,"log2 vehicle/camptothecin viability":-0.426,"viability with camptothecin":104}
